From PubChem BioAssay AID651640 (Broad Institute, 2012)
“And” between values parts separate entries of the source, which are not always exact repeats. Identical values can stand only once. Screen size: about 350,000 compounds; about 6,000 (1.7%) were called active. This list was built around the results that the source calls inconclusive (neither active nor inactive); the mix of calls is not that of the screen. Cut-off read from the data, not from the text of the source: active = CPE inhibition above about 20% (passing the limit was not always enough); inconclusive = no clear call, values can overlap the other calls; tested in BHK-21 cells. A structure can be active in one record and inactive in another.

assay: protection of cells from dengue 2 killing – plate reader, single concentration, primary screen (AID 651640); conditions: DENV2-infected cells, cytopathic effect rescue, at 9.99 µM, stronger effect = higher value;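 note: 0% = median of neutral control wells and 100% = median of positive control wells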

| SMILES | CPE inhibition |
| --- | --- |
| CN1CCC(n2[nH]c(-c3ccccc3)c(Cc3ccccc3)c2=O)CC1 | inactive: 12.5% |
| CN(C)C(=O)c1cccc(-c2ccc(C3[C@H]4CNC[C@@H]3N4Cc3cc(F)ccc3F)cc2)c1 (some centres undefined) | inactive: -15.8% and active: 81.5% |
| CCc1ccc(NC(=S)N(CCN(C)C)C(C)c2ccncc2)cc1 (centres undefined) | inconclusive: 21.7% |
| Cc1ccc(S(=O)(=O)Nc2cccc3c2O[C@@H](CN(C)CC2CC2)[C@H](C)CN([C@H](C)CO)C3=O)cc1 | inconclusive: 30.6% |
| Cc1cccc(N(C)Cc2nnc(-c3cccc(Br)c3)o2)c1 | inconclusive: 25.2% |
| CC1CCCCC12NC(=O)N(CC(=O)NCc1cccs1)C2=O (centres undefined) | active: 28.9% |
| CCC(=O)N1CCCCN2[C@@H](CO)[C@H](c3ccc(C#CCOC)cc3)[C@@H]2C1 | inconclusive: 25.6% |
| O=C(NC1CCCCC1)N1CC2(C1)[C@H](c1ccccc1)[C@@H](CO)N2CC1CC1 | inactive: 1.9% |
| COCC(=O)N1C[C@@H]2[C@H](c3ccccc31)[C@@H](CO)N2C(=O)c1ccccc1F | active: 40.9% |
| COc1ccccc1C(=O)C1CCCN(C(=O)c2cc(C(C)C)no2)C1 (centres undefined) | inactive: -6.42% |
| C[C@H](CO)N1C[C@H](C)[C@@H](CN(C)Cc2ccc(C(F)(F)F)cc2)Oc2c(NC(=O)NC3CCCCC3)cccc2C1=O | active: 37.7% |
| CCCCN(C(=O)COC(=O)c1ccc(C=O)cc1)c1c(N)n(CCC)c(=O)[nH]c1=O | inconclusive: 20.5% |
| C[C@H](CO)N1C[C@H](C)[C@@H](CN(C)Cc2ccc3c(c2)OCO3)Oc2ccc(NS(=O)(=O)c3cn(C)cn3)cc2CC1=O | active: 45.4% |
| CC(=O)N(C)C[C@H]1Oc2cc(C#CCC(C)C)ccc2S(=O)(=O)N([C@H](C)CO)C[C@H]1C | inactive: -10.1% |
| OCc1ccc2c(c1)c(-c1ccc3c(c1)OCCO3)c(-c1ccccc1)n2-c1ccccc1 | inconclusive: 21.1% |
| CCOc1cc(CNc2cccc3[nH]c(C)nc23)ccc1OC | inactive: 1.01% |
| CCCCCn1c(=N)c(S(=O)(=O)c2ccc(Br)cc2)cc2c(=O)n3cccc(C)c3nc21 | inconclusive: 66.4% |
| C[C@@H]1CCCCO[C@@H](CN(C)C(=O)c2ccccc2)[C@H](C)CN([C@H](C)CO)C(=O)c2cc(NC(=O)CCC(F)(F)F)ccc2O1 | inactive: 3.47% |
| COc1ccc(CNC(=O)Nc2ccc3c(c2)c(=O)n(C)n3Cc2cc(C)cc(C)c2)cc1 | active: 32.2% |
| COc1ccccc1N1C(=NC(=O)CCc2ccccc2)SC2CS(=O)(=O)CC21 (centres undefined) | inconclusive: 33.1% |
| O=S(=O)(Cc1ccccc1)N1CCN(Cc2c(F)cccc2Cl)CC1 | inactive: -3.55% |
| CC1CCC(CN2CCN=C2Nc2ccccc2)CC1 (centres undefined) | active: 40.1% |
| CCOC(=O)N1CCN(S(=O)(=O)c2ccc(C(=O)N(CCN(C)C)c3nc4ccc(CC)cc4s3)cc2)CC1 | inconclusive: 20.1% |
| COc1cccc(C#Cc2ccc3c(c2)O[C@H](CN(C)S(=O)(=O)c2ccccc2F)[C@H](C)CN([C@H](C)CO)S3(=O)=O)c1 | inconclusive: 45.5% |
| COc1ccc(NC(=O)C2(C)Cc3c(-c4ccc5c(c4)OCO5)ccnc3O2)cn1 (centres undefined) | inactive: 7.88% |

| SMILES | CPE inhibition |
| --- | --- |
| COc1ccc(NC(=O)CSc2nnc(-c3ccncc3)o2)c([N+](=O)[O-])c1 | inconclusive: 21.9% |
| Cc1cc(CNC(=O)C2CCC(=O)N(CCc3cccc(F)c3)C2)nn1C (centres undefined) | inconclusive: 38.4% |
| CCc1cc(=O)[nH]c(SCCC(F)=C(F)F)n1 | inconclusive: 23% |
| Cc1ccc(-c2nc3cc(C)c(Br)c(C)n3c2Cc2ccccc2)cc1 | inconclusive: 25.4% |
| Cc1csc2ncnc(N3CCN(C(=S)Nc4ccc(C(F)(F)F)cc4)CC3)c12 | inactive: 1.07% |
| Cc1ccc(OCCCCN(C)Cc2ccccc2)c(Br)c1 | inactive: -6.01% |
| O=C(c1ccncc1)N1C[C@H]2[C@@H](c3ccccc31)[C@H](CO)N2C(=O)Nc1ccccc1Cl | inconclusive: 76.6% |
| CO[C@@H](CN(C)S(=O)(=O)c1cn(C)cn1)[C@@H](C)CN(C(=O)Nc1ccc(C(F)(F)F)cc1)[C@@H](C)CO | inactive: -1.85% |
| COc1ccc(NC(=O)Nc2ccc3c(c2)C(=O)N([C@@H](C)CO)C[C@@H](C)[C@H](CN(C)C(=O)c2ccccc2)OCCCC[C@@H](C)O3)cc1 | inconclusive: 23.2% |
| O=C(NCc1ccccc1)[C@H]1CCCN1C(=O)[C@H]1CCCN1C(=O)c1ccc(Cl)cc1 | active: 44.3% |
| C[C@@H]1CN([C@H](C)CO)C(=O)Cc2cc(NS(=O)(=O)c3cccs3)ccc2O[C@H]1CN(C)C(=O)Nc1ccc2c(c1)OCO2 | inconclusive: 23% |
| NC(=S)c1cnn2c(-c3cccc(C(F)(F)F)c3)ccnc12 | inconclusive: 38.5% |
| O=C(O)c1cccc(Nc2cc(Cl)c3nonc3c2[N+](=O)[O-])c1 | inconclusive: 46.7% |
| C[C@H](CO)N1C[C@H](C)[C@H](CN(C)Cc2ccc3c(c2)OCO3)Oc2ccc(NC(=O)Nc3ccccc3)cc2CC1=O | inconclusive: 26.7% |
| CCOc1ccc(NC(=O)CS(=O)(=O)c2cn(CC)c3ccccc23)cc1 | inconclusive: 22.8% |
| C[C@H]1CN([C@@H](C)CO)C(=O)Cc2cc(NC(=O)CCCCCC(=O)Nc3ccccc3N)ccc2O[C@@H]1CN(C)S(=O)(=O)c1ccccc1 | active: 78.8% |
| O=C(Cc1ccc(F)cc1)N1CCC(CC2CC(c3ccc(Cl)cc3)=NO2)(C(=O)NCC2CCCCC2)CC1 (centres undefined) | inconclusive: 60.5% |
| Cc1onc(-c2ccccc2)c1C(=O)Nc1ccc(OC(C)C)cc1 | inactive: 1.37% |
| O=S(=O)(Cc1ccccc1)N1CCCCN2[C@H](CO)[C@@H](c3ccc(-c4ccc(F)cc4)cc3)[C@H]2C1 | active: 40.9% |
| COc1ccc(C(=O)/C=C/c2ccccc2)c(OC)c1 | inconclusive: 67.4% |
| Cc1ccccc1S(=O)(=O)NCC[C@@H]1CC[C@H](NC(=O)C2CCCC2)[C@@H](CO)O1 | active: 22.9% |
| COCC(=O)NC[C@H]1N[C@H](CO)[C@H]1c1ccc(C2=CCCC2)cc1 | inactive: 1.47% |
| O=C(OCC(=O)N1CCC(Cc2ccccc2)CC1)c1ccc(O)cc1 | inconclusive: 27.5% |
| Cc1cc(C(=O)NCC(=O)OCC(=O)NCC2CCCO2)ccc1[N+](=O)[O-] (centres undefined) | inconclusive: 28.9% |
| C[C@@H]1CCCCO[C@H](CN(C)S(=O)(=O)c2ccc(Cl)cc2)[C@@H](C)CN([C@@H](C)CO)C(=O)c2cc(NS(=O)(=O)c3ccc(F)cc3)ccc2O1 | inactive: 3.12% |

| SMILES | CPE inhibition |
| --- | --- |
| O=C(NCCN1CCC(n2c(=O)[nH]c3ccccc32)CC1)C(c1ccccc1)c1ccccc1 | inconclusive: 37.1% |
| CN1CCN(C(c2ccc(C(F)(F)F)cc2)c2ccc3cccnc3c2O)CC1 (centres undefined) | inactive: 2.96% |
| COC(=O)N1C2CCCCC2=NN(c2ccccc2)N1C(=O)OC (centres undefined) | inconclusive: 20.6% |
| O=C(CN1CCN(C(=O)CNC(=O)c2ccc(N3CCCC3=O)cc2)CC1)Nc1cccc(F)c1 | inconclusive: 26.7% |
| CCOc1cc(C(=O)Nc2ccc(S(=O)(=O)Nc3onc(C)c3C)cc2)cc(OCC)c1OCC | inconclusive: 22.5% |
| COc1ccc(-c2nc(-c3cccc(C)c3)no2)cc1OC | inactive: -4.96% |
| O=C(NCC(=O)N1CCCC(C(F)(F)F)C1)c1ccccc1Br (centres undefined) | inconclusive: 23.1% |
| CC(C)CC#Cc1ccc([C@@H]2[C@@H](CO)N3CCCCN(S(=O)(=O)Cc4ccccc4)C[C@@H]23)cc1 | active: 21.7% |
| COc1ccccc1C(=O)N1C[C@H]2[C@@H](c3ccccc31)[C@@H](CO)N2C(=O)Cc1ccccc1 | inconclusive: 38% |
| COC(=O)c1ccc2nc(-c3ccco3)c(Cc3ccsc3)n2c1 | active: 68.1% |
| CC(=O)Nc1ccc(S(=O)(=O)N2CCC(C(=O)NCc3ccco3)CC2)cc1 | inactive: 1.9% |
| C/C=C/c1ccc2c(c1)O[C@@H](CN(C)Cc1ccc(F)cc1)[C@@H](C)CN([C@H](C)CO)S2(=O)=O | inconclusive: 25.6% |
| COc1ccc2nc(C)cc(N3CCC(C(N)=O)CC3)c2c1 | inactive: -0.905% |
| O=C(NC1CCCCC1)C1c2ccccc2OCC(=O)N1Cc1cccnc1 (centres undefined) | inconclusive: 39.4% |
| CC(C)C(=O)Nc1ccc2c(c1)C(=O)N(C)[C@H]1CC[C@@H](CC(=O)NCc3ccccc3)O[C@@H]1CO2 | active: 31.8% |
| CCc1nc(N)nc(N)c1-c1ccc(Cl)c([N+](=O)[O-])c1 | inactive: -2.15% |
| C[C@@H]1CN([C@H](C)CO)S(=O)(=O)c2ccc(-c3ccc(C(=O)N(C)C)cc3)cc2O[C@H]1CN(C)C(=O)Nc1ccccc1F | inactive: 3.83% |
| C[C@H]1CN([C@@H](C)CO)C(=O)c2cc(NS(=O)(=O)c3ccccc3)ccc2O[C@@H]1CN(C)Cc1ccc(Cl)c(Cl)c1 | inconclusive: 40.6% |
| COc1ccc(-c2ccc3c(n2)CCCN3S(=O)(=O)c2ccc(C#N)cc2)cc1 | inconclusive: 24.3% |
| CNC[C@H]1Oc2ccc(NC(=O)NC3CCCCC3)cc2C(=O)N([C@H](C)CO)C[C@H]1C | inactive: 7.03% |
| CN1CCCCN2[C@H](CO)[C@@H](c3ccc(-c4ccc(F)cc4)cc3)[C@@H]2C1 | active: 60.8% |
| CCN(C(=O)CSc1cccc[n+]1[O-])C1CCCCC1 | inconclusive: 66.6% |
| Cc1cc(C)n(CCCC(=O)O)n1 | inactive: -1.39% |
| O=C1c2cc([N+](=O)[O-])ccc2-c2ncccc21 | active: 50.8% |
